Experimental data published in the supplement of paper PMC10849652.
Some of the results follow. Residues, ends and D or L forms follow the SMILES beside them. *: point of attachment. Cbz = O=C(OCc1ccccc1)*

Protein sequences, listed by entry. Tags and fused reporters are not part of them. Lines headed by an entry give the natural chain unless they say otherwise; changes in a name come on top.
UniProt Q9BW83: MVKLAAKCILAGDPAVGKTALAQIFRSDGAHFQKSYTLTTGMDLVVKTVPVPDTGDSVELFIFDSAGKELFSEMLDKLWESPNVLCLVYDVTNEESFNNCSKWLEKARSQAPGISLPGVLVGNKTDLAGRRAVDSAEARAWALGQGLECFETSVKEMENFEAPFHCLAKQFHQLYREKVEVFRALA
UniProt Q75QN2, whole entry, looked up: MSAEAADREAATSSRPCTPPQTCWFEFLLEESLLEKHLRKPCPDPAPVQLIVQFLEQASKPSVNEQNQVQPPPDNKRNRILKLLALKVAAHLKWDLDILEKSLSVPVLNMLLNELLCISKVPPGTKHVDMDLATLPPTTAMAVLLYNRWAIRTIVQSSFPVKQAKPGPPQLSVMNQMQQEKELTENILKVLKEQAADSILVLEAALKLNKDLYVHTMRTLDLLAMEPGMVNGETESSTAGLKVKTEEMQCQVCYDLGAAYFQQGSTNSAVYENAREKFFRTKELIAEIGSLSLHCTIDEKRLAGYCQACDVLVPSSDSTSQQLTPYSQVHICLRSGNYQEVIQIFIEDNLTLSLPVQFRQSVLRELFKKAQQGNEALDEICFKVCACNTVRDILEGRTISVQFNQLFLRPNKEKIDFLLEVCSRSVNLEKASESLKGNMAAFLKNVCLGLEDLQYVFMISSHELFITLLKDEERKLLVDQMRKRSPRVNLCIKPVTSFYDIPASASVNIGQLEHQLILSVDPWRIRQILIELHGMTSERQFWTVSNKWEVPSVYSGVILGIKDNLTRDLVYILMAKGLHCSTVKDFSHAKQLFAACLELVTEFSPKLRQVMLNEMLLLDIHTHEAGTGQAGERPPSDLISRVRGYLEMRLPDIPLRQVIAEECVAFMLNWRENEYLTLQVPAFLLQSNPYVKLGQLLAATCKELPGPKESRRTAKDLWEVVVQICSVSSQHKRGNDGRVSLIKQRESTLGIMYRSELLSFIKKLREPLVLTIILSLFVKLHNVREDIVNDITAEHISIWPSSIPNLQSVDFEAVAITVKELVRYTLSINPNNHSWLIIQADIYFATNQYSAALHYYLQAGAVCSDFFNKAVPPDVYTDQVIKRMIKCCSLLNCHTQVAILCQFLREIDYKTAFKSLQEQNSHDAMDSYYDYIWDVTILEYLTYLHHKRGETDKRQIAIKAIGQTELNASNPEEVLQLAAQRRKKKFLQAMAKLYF
UniProt P38570: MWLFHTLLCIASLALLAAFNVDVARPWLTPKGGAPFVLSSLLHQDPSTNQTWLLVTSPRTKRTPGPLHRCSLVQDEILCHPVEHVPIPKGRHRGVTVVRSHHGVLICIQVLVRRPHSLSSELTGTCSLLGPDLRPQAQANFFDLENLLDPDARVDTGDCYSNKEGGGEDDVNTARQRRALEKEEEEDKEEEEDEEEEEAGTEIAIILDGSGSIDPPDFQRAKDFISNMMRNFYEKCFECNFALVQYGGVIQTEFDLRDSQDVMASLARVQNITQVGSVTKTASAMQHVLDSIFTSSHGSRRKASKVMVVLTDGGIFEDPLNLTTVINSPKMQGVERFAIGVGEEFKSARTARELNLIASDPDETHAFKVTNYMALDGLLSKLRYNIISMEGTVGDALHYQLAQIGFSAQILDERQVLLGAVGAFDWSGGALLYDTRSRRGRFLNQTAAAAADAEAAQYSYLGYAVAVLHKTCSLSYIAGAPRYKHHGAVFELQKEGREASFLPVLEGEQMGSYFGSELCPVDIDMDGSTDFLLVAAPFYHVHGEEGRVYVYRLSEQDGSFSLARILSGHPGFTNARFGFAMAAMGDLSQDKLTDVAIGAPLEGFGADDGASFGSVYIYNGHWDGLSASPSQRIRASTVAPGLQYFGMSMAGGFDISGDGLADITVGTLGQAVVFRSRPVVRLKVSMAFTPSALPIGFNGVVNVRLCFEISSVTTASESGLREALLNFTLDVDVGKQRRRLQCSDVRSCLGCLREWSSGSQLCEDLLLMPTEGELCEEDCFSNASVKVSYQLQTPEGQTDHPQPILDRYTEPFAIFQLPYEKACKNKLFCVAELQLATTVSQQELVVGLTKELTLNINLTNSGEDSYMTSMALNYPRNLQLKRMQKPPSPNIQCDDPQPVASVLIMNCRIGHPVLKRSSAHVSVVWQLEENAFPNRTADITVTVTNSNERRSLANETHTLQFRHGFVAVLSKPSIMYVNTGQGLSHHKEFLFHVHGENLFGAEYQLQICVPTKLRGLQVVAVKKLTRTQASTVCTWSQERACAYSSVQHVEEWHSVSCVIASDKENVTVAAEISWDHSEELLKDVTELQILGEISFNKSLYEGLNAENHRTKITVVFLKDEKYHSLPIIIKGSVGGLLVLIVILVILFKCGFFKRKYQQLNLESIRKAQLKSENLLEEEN
UniProt P14316: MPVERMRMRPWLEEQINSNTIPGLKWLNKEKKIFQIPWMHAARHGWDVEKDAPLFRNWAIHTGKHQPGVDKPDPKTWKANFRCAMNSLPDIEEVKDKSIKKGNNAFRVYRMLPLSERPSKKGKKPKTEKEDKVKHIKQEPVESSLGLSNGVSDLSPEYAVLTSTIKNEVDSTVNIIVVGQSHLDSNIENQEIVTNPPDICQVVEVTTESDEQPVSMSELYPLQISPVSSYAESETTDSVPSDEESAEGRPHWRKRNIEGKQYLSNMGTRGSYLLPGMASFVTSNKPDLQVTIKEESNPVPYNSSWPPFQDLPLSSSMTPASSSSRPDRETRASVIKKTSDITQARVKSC
UniProt P24593, whole entry, looked up: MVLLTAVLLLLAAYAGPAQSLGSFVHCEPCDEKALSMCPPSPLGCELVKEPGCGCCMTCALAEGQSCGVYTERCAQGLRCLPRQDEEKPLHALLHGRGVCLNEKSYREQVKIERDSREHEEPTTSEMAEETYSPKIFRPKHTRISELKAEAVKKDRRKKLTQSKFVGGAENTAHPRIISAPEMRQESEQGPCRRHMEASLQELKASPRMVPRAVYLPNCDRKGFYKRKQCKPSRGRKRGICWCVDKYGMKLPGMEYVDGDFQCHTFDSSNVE
UniProt Q8IU81: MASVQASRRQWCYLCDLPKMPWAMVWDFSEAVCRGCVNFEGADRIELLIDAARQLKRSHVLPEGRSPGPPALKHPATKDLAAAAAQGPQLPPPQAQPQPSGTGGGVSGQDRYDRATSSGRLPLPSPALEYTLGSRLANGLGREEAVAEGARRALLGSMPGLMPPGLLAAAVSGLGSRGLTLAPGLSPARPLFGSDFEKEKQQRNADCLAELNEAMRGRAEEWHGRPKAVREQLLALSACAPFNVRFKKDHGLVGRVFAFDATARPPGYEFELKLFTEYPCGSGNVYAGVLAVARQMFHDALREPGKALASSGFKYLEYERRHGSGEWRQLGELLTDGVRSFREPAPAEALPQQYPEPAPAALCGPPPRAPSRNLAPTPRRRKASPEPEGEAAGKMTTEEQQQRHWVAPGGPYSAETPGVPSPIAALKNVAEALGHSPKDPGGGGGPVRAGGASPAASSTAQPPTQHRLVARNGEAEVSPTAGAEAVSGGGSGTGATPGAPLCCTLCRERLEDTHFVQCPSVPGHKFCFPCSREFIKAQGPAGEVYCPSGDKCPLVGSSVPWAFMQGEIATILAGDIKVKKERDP
UniProt Q9BUE6: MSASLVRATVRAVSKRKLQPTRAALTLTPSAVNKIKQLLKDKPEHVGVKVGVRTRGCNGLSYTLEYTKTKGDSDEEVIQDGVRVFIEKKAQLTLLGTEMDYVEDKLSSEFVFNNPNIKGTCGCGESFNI
UniProt Q14643, whole entry, looked up: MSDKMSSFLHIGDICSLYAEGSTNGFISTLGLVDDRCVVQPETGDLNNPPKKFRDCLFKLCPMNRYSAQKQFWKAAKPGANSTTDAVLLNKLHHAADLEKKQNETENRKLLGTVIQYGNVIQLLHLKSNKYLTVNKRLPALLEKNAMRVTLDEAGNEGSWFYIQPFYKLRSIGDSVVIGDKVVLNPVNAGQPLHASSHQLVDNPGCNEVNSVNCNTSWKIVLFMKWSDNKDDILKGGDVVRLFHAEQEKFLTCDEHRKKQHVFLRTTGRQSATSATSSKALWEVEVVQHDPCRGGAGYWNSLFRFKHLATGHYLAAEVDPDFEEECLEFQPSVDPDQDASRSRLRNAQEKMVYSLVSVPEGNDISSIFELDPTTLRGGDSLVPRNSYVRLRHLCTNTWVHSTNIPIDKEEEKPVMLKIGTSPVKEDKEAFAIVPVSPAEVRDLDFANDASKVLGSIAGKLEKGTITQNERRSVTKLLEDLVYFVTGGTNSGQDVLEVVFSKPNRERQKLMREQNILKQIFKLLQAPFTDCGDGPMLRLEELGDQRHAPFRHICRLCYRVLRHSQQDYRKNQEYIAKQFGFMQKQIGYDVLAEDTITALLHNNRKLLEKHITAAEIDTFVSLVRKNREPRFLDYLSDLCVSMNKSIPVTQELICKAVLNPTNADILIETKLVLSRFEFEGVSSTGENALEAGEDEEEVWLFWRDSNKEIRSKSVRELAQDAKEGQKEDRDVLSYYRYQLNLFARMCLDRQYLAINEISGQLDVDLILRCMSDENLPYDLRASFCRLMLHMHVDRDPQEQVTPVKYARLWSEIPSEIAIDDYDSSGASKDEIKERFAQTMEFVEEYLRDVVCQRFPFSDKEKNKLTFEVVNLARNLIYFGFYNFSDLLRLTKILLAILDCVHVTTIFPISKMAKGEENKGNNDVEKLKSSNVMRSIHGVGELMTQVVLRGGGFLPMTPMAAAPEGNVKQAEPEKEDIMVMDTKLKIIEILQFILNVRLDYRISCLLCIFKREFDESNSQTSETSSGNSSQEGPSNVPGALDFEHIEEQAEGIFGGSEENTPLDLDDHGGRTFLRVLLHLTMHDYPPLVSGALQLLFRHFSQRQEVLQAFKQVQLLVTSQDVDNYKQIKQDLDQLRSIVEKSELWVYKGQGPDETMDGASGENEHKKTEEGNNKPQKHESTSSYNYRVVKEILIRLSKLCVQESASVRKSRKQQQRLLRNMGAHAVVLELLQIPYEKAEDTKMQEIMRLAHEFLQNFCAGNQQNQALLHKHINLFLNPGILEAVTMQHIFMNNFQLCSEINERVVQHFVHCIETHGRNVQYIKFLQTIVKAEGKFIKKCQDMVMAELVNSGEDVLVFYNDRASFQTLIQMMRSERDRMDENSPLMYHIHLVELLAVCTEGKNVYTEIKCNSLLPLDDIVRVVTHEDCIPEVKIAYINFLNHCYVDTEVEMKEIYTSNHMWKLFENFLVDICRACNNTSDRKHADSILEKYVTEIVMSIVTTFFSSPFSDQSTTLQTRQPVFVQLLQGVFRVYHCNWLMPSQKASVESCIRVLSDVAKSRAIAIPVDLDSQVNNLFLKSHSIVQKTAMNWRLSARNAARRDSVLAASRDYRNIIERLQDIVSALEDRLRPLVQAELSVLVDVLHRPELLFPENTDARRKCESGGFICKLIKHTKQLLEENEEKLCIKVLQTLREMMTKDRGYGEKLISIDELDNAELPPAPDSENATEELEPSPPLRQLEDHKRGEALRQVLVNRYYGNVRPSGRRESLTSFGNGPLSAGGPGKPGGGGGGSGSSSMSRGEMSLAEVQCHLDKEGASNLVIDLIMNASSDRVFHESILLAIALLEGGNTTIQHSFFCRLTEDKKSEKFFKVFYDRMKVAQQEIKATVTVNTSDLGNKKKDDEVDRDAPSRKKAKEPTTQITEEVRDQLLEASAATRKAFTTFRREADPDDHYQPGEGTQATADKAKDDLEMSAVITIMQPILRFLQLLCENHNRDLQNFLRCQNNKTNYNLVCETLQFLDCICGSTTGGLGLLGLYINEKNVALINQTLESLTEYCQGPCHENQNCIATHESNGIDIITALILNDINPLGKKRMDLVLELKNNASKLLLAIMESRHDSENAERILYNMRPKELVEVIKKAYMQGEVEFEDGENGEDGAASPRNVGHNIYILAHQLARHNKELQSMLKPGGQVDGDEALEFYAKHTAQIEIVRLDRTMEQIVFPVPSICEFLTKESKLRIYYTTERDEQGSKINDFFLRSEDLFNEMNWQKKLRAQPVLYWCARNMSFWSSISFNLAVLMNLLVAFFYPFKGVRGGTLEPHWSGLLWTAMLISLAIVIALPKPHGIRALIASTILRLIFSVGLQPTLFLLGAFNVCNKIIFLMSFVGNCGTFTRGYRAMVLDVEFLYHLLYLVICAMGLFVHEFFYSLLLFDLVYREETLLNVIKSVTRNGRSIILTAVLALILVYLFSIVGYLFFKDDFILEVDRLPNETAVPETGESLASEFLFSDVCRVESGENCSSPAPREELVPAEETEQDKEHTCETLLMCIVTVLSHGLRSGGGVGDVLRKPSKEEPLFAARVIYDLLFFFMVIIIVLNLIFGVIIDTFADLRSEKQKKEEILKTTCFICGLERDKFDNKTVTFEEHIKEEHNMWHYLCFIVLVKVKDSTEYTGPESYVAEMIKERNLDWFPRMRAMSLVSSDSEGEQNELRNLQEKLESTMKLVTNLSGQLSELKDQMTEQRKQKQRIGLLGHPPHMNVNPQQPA

What was measured:
Experiment in all cases: log2 fold change, soluble protein after heating vs DMSO (PISA); higher = thermal stabilisation; K562 cells, 10 uM, 30 min; active = over 0.2 and 3.5 SD of the protein, either way, in both replicates (recomputed)
erlotinib = compound: C#Cc1cccc(Nc2ncnc3cc(OCCOC)c(OCCOC)cc23)c1 [erlotinib]
Procedure, shortened: (§1)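 Soluble protein was defined as the supernatant after 21,000xg for 90 min. It came from K562 cells at 2×10^6 cells/mL given 10 μM compound for 30 min, heated in aliquots for 3 min across 48°C-58°C, pooled, and extracted in PBS with 0.5% NP-40 at 4°C, and was quantified by TMTpro 16plex LC-MS/MS with equalised channel sums. Thermal stability against control samples, from duplicates, is reported as log2 fold change.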

[1] = compound: C/C(=N\NC(=O)C1=CC(=CC=C1)S(=O)(=O)N2CCOCC2)/C3=C(C=CC(=C3)Cl)O
Procedure, shortened: as §1

[2] = compound: C1=CC(=CC=C1C2=NC3=C(N2)C=C(C=C3)C(=O)N)OC4=CC=C(C=C4)Cl
Procedure, shortened: as §1

[3] = compound: C1=CC2=C(C=CC(=C2)/C=C\3/C(=O)NC(=NCC4=CC=CS4)S3)N=C1
Procedure, shortened: as §1

[4] = compound: C1=CC=C2C(=C1)C3=NNC4=CC=CC(=C43)C2=O
Procedure, shortened: as §1

[5] = compound: CC(=O)c1cnc2ccc(-c3cc(Cl)c(O)c(Cl)c3)nc2c1N[C@H]1CC[C@H](CN(C)C)CC1
Procedure, shortened: as §1

[6] = compound: CC(C)C1=C2N=C(C=C(N2N=C1)NCC3=CC=CC=C3)NCCCCCCN
Procedure, shortened: as §1

[7] = compound: C1=CC2=NC=CN=C2C=C1/C=C/3\C(=O)NC(=O)S3
Procedure, shortened: as §1

[8] = compound: C1=CC=C(C=C1)C2=NC(=C(N2)C3=CC=NC=C3)C4=CC(=C(C=C4)Cl)O
Procedure, shortened: as §1

[9] = compound: C1CCN(C1)C(=O)NC2=CC=CC(=C2)NC3=NC=C(C(=N3)NCCC4=CN=CN4)Br
Procedure, shortened: as §1

[10] = compound: C1CN(CCC1(CC2=CC=C(C=C2)Cl)N)C3=NC=NC4=C3C=CN4
Procedure, shortened: as §1

IRAK-1-4 Inhibitor I = compound: C1COCCN1CCN2C3=CC=CC=C3N=C2NC(=O)C4=CC(=CC=C4)[N+](=O)[O-] [IRAK-1-4 Inhibitor I]
Procedure, shortened: as §1

ibrutinib = compound: C=CC(=O)N1CCC[C@@H](n2nc(-c3ccc(Oc4ccccc4)cc3)c3c(N)ncnc32)C1 [ibrutinib]
Procedure, shortened: as §1

ralimetinib = compound: CC(C)(C)Cn1c(N)nc2ccc(-c3[nH]c(C(C)(C)C)nc3-c3ccc(F)cc3)nc21 [ralimetinib]
Procedure, shortened: as §1

[11] = compound: CC(C)C[C@@H](C=O)NC(=O)[C@H](CC(C)C)NC(=O)[C@H](CC(C)C)NC(=O)OCc1ccccc1
Procedure, shortened: as §1

pinometostat = compound: CC(C)N(C[C@H]1O[C@@H](n2cnc3c(N)ncnc32)[C@H](O)[C@@H]1O)[C@H]1C[C@@H](CCc2nc3cc(C(C)(C)C)ccc3[nH]2)C1 [pinometostat]
Procedure, shortened: as §1

[12] = compound: CC1=C(C(CC(=O)N1)C2=CC=C(C=C2)C(F)(F)F)C(=O)NC3=C(C=C4C(=C3)C=NN4)F
Procedure, shortened: as §1

[13] = compound: CC1=C(C2=C(C=C1)C(=O)C3=CC=CC=C3N2CCCN)C
Procedure, shortened: as §1

[14] = compound: C1=CC(=C(C=C1Cl)C2=NC3=NC=CN=C3C(=N2)NC4=CC=NC=C4)F
Procedure, shortened: as §1

[15] = compound: CC(C)(O)CC(=O)NCCn1ccc2ncnc(Nc3ccc(Oc4cccc(C(F)(F)F)c4)c(Cl)c3)c21
Procedure, shortened: as §1

| Target | log2 fold change (erlotinib) | log2 fold change [1] | log2 fold change [2] | log2 fold change [3] | log2 fold change [4] | log2 fold change [5] | log2 fold change [6] | log2 fold change [7] | log2 fold change [8] | log2 fold change [9] | log2 fold change [10] | log2 fold change (IRAK-1-4 Inhibitor I) | log2 fold change (ibrutinib) | log2 fold change (ralimetinib) | log2 fold change [11] | log2 fold change (pinometostat) | log2 fold change [12] | log2 fold change [13] | log2 fold change [14] | log2 fold change [15] |
| --- | --- | --- | --- | --- | --- | --- | --- | --- | --- | --- | --- | --- | --- | --- | --- | --- | --- | --- | --- | --- |
| IFT27 (UniProt Q9BW83) | inactive: -0.018 | inactive: 0.161 | inactive: -0.021 | inactive: -0.264 | inactive: 0.058 | inactive: -0.238 | inactive: 0.016 | – | – | – | – | – | – | – | – | – | – | – | – | – |
| INTS8 (UniProt Q75QN2) | inactive: 0.04 | inactive: -0.008 | inactive: -0.046 | inactive: 0.137 | inactive: -0.033 | inactive: -0.063 | inactive: -0.112 | inactive: 0.02 | inactive: -0.033 | inactive: -0.144 | inactive: -0.035 | inactive: 0.067 | inactive: 0.131 | inactive: 0.023 | inactive: 0.029 | inactive: 0.052 | inactive: 0 | inactive: -0.035 | – | – |
| IGHG1 (UniProt P01857) | inactive: 0.638 | – | inactive: -0.313 | – | – | – | inactive: 0.023 | inactive: -0.014 | – | – | – | – | inactive: -0.029 | – | – | – | inactive: 0.188 | – | – | – |
| ITGAE (UniProt P38570) | inactive: 0.288 | – | inactive: 0.014 | – | – | – | inactive: -0.042 | inactive: -0.046 | inactive: 0.071 | – | – | inactive: -0.031 | inactive: 0.326 | inactive: 0.021 | inactive: 0.205 | inactive: -0.021 | inactive: 0.055 | – | inactive: -0.005 | inactive: -0.123 |
| IMPA2 (UniProt O14732) | inactive: 0.091 | inactive: 0.075 | inactive: -0.018 | inactive: 0.168 | inactive: -0.116 | inactive: -0.041 | inactive: -0.034 | inactive: -0.04 | inactive: -0.005 | inactive: -0.032 | inactive: -0.39 | – | inactive: 0.1 | inactive: -0.03 | inactive: -0.001 | – | – | inactive: 0.267 | – | – |
| ITGB1BP1 (UniProt O14713) | inactive: -0.032 | – | inactive: 0.016 | – | – | – | inactive: -0.229 | inactive: 0.044 | inactive: 0.074 | inactive: 0.022 | inactive: 0.109 | – | inactive: -0.125 | inactive: -0.05 | inactive: 0.017 | – | – | inactive: -0.017 | inactive: -0.003 | inactive: -0.167 |
| IDH3A isoform 2 (UniProt P50213) | inactive: 0.132 | active: -0.572 | inactive: -0.084 | inactive: 0.135 | inactive: 0.039 | inactive: -0.004 | inactive: 0.153 | inactive: -0.017 | – | inactive: -0.052 | inactive: 0.164 | inactive: 0.196 | inactive: 0.008 | – | – | inactive: 0.011 | – | inactive: 0.059 | – | – |
| IRF2 (UniProt P14316) | inactive: 0.047 | inactive: 0.146 | inactive: 0.002 | inactive: -0.203 | inactive: -0.024 | inactive: -0.049 | inactive: 0.094 | inactive: 0.068 | inactive: 0.067 | inactive: -0.041 | inactive: 0.05 | inactive: 0.125 | inactive: -0.017 | inactive: -0.015 | inactive: 0.008 | inactive: -0.072 | inactive: -0.076 | inactive: -0.139 | – | – |
| IGFBP5 (UniProt P24593) | inactive: -0.051 | – | inactive: 0.484 | – | – | – | inactive: -0.331 | – | – | inactive: 0.07 | inactive: 0.148 | – | – | – | – | – | – | inactive: -0.149 | inactive: -0.009 | inactive: -0.074 |
| IRF2BP1 (UniProt Q8IU81) | inactive: 0.091 | – | inactive: 0.031 | – | – | – | inactive: 0.088 | inactive: 0.011 | inactive: -0.032 | inactive: -0.081 | inactive: -0.034 | – | inactive: -0.118 | inactive: -0.047 | inactive: 0.089 | – | – | inactive: 0.139 | – | – |
| ISCA1 isoform 2 (UniProt Q9BUE6) | inactive: 0.06 | inactive: -0.194 | inactive: 0.077 | inactive: 0.023 | inactive: -0.022 | inactive: -0.01 | inactive: -0.016 | inactive: 0.043 | – | inactive: -0.06 | inactive: -0.022 | inactive: 0.104 | inactive: 0.011 | – | – | inactive: -0.065 | inactive: 0.071 | inactive: 0.066 | inactive: -0.077 | inactive: 0.015 |
| ITPR1 (UniProt Q14643) | inactive: 0.087 | – | inactive: 0.187 | – | – | – | inactive: -0.046 | inactive: -0.111 | inactive: -0.055 | – | – | inactive: -0.111 | inactive: -0.132 | inactive: 0.178 | inactive: 0.154 | inactive: -0.108 | – | – | inactive: -0.361 | inactive: -0.09 |

Two entries from above, tab-delimited:
Target	log2 fold change (erlotinib)	log2 fold change [1]	log2 fold change [2]	log2 fold change [3]	log2 fold change [4]	log2 fold change [5]	log2 fold change [6]	log2 fold change [7]	log2 fold change [8]	log2 fold change [9]	log2 fold change [10]	log2 fold change (IRAK-1-4 Inhibitor I)	log2 fold change (ibrutinib)	log2 fold change (ralimetinib)	log2 fold change [11]	log2 fold change (pinometostat)	log2 fold change [12]	log2 fold change [13]	log2 fold change [14]	log2 fold change [15]
IMPA2 (UniProt O14732)	inactive: 0.091	inactive: 0.075	inactive: -0.018	inactive: 0.168	inactive: -0.116	inactive: -0.041	inactive: -0.034	inactive: -0.04	inactive: -0.005	inactive: -0.032	inactive: -0.39	–	inactive: 0.1	inactive: -0.03	inactive: -0.001	–	–	inactive: 0.267	–	–
IDH3A isoform 2 (UniProt P50213)	inactive: 0.132	active: -0.572	inactive: -0.084	inactive: 0.135	inactive: 0.039	inactive: -0.004	inactive: 0.153	inactive: -0.017	–	inactive: -0.052	inactive: 0.164	inactive: 0.196	inactive: 0.008	–	–	inactive: 0.011	–	inactive: 0.059	–	–
